Source: patent publication US20090156421A1 (published 2009)
These are yes or no findings as the source states them, for the method shown. Binding can be weak; no strength is given.

Sequences of proteins named here, by UniProt entry; tags and fusion partners are left off. A change or cut given only in a name is not applied to a line headed by its entry.
UniProt P35225: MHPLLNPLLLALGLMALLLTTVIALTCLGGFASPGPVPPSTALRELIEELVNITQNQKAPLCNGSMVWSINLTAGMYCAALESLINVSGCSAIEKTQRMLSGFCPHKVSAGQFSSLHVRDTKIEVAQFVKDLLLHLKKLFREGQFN

T1: IL-13Rα1 monomer (IL-13Rα1 extracellular domain) (human) (UniProt P78552)
T1 sequence (looked up): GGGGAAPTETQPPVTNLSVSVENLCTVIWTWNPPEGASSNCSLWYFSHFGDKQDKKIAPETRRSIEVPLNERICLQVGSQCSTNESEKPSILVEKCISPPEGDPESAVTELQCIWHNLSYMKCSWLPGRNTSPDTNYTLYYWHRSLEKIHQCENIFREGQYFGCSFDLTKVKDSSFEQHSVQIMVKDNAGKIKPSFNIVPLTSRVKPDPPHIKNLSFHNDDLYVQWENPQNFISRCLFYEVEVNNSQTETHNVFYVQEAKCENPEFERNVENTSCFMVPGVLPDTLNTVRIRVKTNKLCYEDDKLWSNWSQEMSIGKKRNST


Assays:
[1] = target: T1, IL-13Rα1 monomer (IL-13Rα1 extracellular domain) (human); experiment: SPR (Biacore 3000), IL-13Rα1 immobilised
[2] = target: T1, IL-13Rα1 monomer (IL-13Rα1 extracellular domain) (human); experiment: TR-FRET assay 1, competition
[3] = target: T1, IL-13Rα1 monomer (IL-13Rα1 extracellular domain) (human); experiment: SPR, IL-13Rα1 immobilised
[4] = target: Eu-IL-13 (europium chelate labeled IL-13) (human) (UniProt P35225); experiment: TR-FRET assay 1, direct binding
[5] = target: Eu-IL-13 (europium chelate labeled IL-13) (human) (UniProt P35225); experiment: TR-FRET assay 1

Row | binding [1] | binding [2] | binding [3] | binding [4] | binding [5] | Molecule
1 | binds | binds | binds | – | – | Human recombinant IL-13 (from UniProt P35225) (ligand)
2 | – | – | – | binds | binds | Cy5-IL-13Rα1 (Cy5 labeled IL-13Rα1) (receptor, human, UniProt P78552 22-343, looked up, Cy5 label, directly labeled; site not stated, extracellular domain; also called IL-13R-Cys5; Cy5-IL-13RI1) GGGGAAPTETQPPVTNLSVSVENLCTVIWTWNPPEGASSNCSLWYFSHFGDKQDKKIAPETRRSIEVPLNERICLQVGSQCSTNESEKPSILVEKCISPPEGDPESAVTELQCIWHNLSYMKCSWLPGRNTSPDTNYTLYYWHRSLEKIHQCENIFREGQYFGCSFDLTKVKDSSFEQHSVQIMVKDNAGKIKPSFNIVPLTSRVKPDPPHIKNLSFHNDDLYVQWENPQNFISRCLFYEVEVNNSQTETHNVFYVQEAKCENPEFERNVENTSCFMVPGVLPDTLNTVRIRVKTNKLCYEDDKLWSNWSQEMSIGKKRNST
